PubChem BioAssay AID686938, Drosophila RNAi Screening Center | 2013
The deposit covers about 23,000 reagents; below is a random part of those that have a named target and a result. Of all reagents, 75 (0.33%) are marked active. 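Raw plate signals without normalisation; calls rest on plate z-scores that were not deposited; ratio present for only 364 wells.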 The numbers tell different reagents against one gene apart. Names joined by + are all predicted targets of the reagent. Not given: the dose of the treatment.

Assay: 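Knock-downs reducing store-operated calcium influx in Drosophila cells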 (primary screen)
Cells: Drosophila S2R+ cells
Reagents: long dsRNA against Drosophila genes, about 0.25 µg dsRNA per well, roughly 10,000 cells
Duration: 5 days of knock-down before the calcium assay
Treatment: thapsigargin (SERCA pump blocker) to empty calcium stores; entry signal taken 4 min after adding it
Detection: 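Duplicate raw fluo-4 intensities per well from a plate reader, at rest and four minutes after thapsigargin emptied calcium stores; entry-to-rest ratio filled for only some wells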
Reading the numbers: calcium entry signal: higher = stronger calcium signal after store depletion; entry to resting ratio: higher = more calcium entry relative to resting level; resting calcium signal: higher = higher resting calcium signal
Hit rule: 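Hit if the duplicate-averaged plate z-score for entry over resting signal is under −3; wells with weak total dye signal (Fmax z < −2) or more than 5 off-targets removed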
Calls: active = strongly reduced calcium entry; inactive = no strong reduction

gene knocked down | reagent no. | calcium entry signal, replicate 1 (fluorescence units) | calcium entry signal, replicate 2 (fluorescence units) | entry to resting ratio | resting calcium signal, replicate 1 (fluorescence units) | resting calcium signal, replicate 2 (fluorescence units) | outcome
CG3091 (GeneID 31210) | 1 | 4.18e7 | 4.19e7 | 2.2 | 1.93e7 | 2.05e7 | inactive
CG17107 (GeneID 34467) | 1 | 3.45e7 | 4.23e7 | – | 1.76e7 | 1.99e7 | inactive
CG17107 (GeneID 34467) | 2 | 4.60e7 | 3.17e7 | – | 2.44e7 | 1.50e7 | inactive
Acp63F (GeneID 38448) | 1 | 3.51e7 | 4.20e7 | – | 1.79e7 | 1.80e7 | inactive
vsg (GeneID 39137) | 1 | 2.85e7 | 4.41e7 | – | 1.56e7 | 1.90e7 | inactive
CG5439 (GeneID 34710) | 1 | 4.45e7 | – | – | 2.36e7 | – | inactive
prage (GeneID 31136) | 1 | 3.44e7 | 4.99e7 | 2.1 | 1.67e7 | 2.09e7 | inactive
prage (GeneID 31136) | 2 | 2.34e7 | 2.44e7 | – | 1.53e7 | 1.41e7 | inactive
prage (GeneID 31136) | 3 | 3.48e7 | 5.78e7 | 2 | 1.78e7 | 2.27e7 | inactive
prage (GeneID 31136) | 4 | 3.91e7 | 4.89e7 | 2.1 | 1.86e7 | 2.01e7 | inactive
Taldo (GeneID 37804) | 1 | 3.37e7 | – | – | 1.66e7 | – | inactive
CG34328 (GeneID 5740378) | 1 | 3.63e7 | 4.30e7 | – | 1.85e7 | 1.96e7 | inactive
Art8 (GeneID 34528) | 1 | 3.11e7 | 4.40e7 | – | 1.67e7 | 1.99e7 | inactive
CG14879 (GeneID 41982) | 1 | 3.61e7 | 5.01e7 | – | 1.84e7 | 7.54e7 | inactive
slou (GeneID 42547) | 1 | 3.23e7 | 3.86e7 | – | 5.24e7 | 1.72e7 | inactive

Laid out differently: results already given
| gene knocked down | reagent no. | calcium entry signal, replicate 1 (fluorescence units) | calcium entry signal, replicate 2 (fluorescence units) | entry to resting ratio | resting calcium signal, replicate 1 (fluorescence units) | resting calcium signal, replicate 2 (fluorescence units) | outcome |
| --- | --- | --- | --- | --- | --- | --- | --- |
| Acp63F (GeneID 38448) | 1 | 3.51e7 | 4.20e7 | – | 1.79e7 | 1.80e7 | inactive |
| vsg (GeneID 39137) | 1 | 2.85e7 | 4.41e7 | – | 1.56e7 | 1.90e7 | inactive |
| CG5439 (GeneID 34710) | 1 | 4.45e7 | – | – | 2.36e7 | – | inactive |

The listing continues.
gene knocked down | reagent no. | calcium entry signal, replicate 1 (fluorescence units) | calcium entry signal, replicate 2 (fluorescence units) | entry to resting ratio | resting calcium signal, replicate 1 (fluorescence units) | resting calcium signal, replicate 2 (fluorescence units) | outcome
CG14246 (GeneID 3772140) | 1 | 3.65e7 | 5.45e7 | – | 1.95e7 | 2.62e7 | inactive
tutl (GeneID 46015) | 1 | 2.30e7 | 2.61e7 | – | 1.21e7 | 1.24e7 | inactive
tutl (GeneID 46015) | 2 | 2.27e7 | 2.52e7 | – | 1.08e7 | 1.19e7 | inactive
tutl (GeneID 46015) | 3 | 1.93e7 | 2.34e7 | – | 1.09e7 | 1.22e7 | inactive
CG8079 (GeneID 36689) | 1 | 2.39e7 | 2.17e7 | – | 1.16e7 | 1.11e7 | inactive
CG8079 (GeneID 36689) | 2 | 3.90e7 | 4.65e7 | – | 2.04e7 | 2.11e7 | inactive
CG12288 (GeneID 35027) | 1 | 3.96e7 | 2.53e7 | – | 1.81e7 | 1.22e7 | inactive
Obp50b + Obp50c | 1 | 2.87e7 | 3.81e7 | – | 1.67e7 | 1.56e7 | inactive
mei-W68 (GeneID 2768853) | 1 | 3.90e7 | 4.45e7 | – | 1.59e7 | 1.87e7 | inactive
